The supplement of paper PMC10849652
The list shows a part of the results. Residues, ends and D or L forms follow the SMILES beside them. *: point of attachment. Cbz = O=C(OCc1ccccc1)*

The chains behind the UniProt entries cited, without tags or fusion partners. Where a name states a change or a piece, a line headed by the entry shows the natural chain unless it says otherwise.
UniProt Q96GG9: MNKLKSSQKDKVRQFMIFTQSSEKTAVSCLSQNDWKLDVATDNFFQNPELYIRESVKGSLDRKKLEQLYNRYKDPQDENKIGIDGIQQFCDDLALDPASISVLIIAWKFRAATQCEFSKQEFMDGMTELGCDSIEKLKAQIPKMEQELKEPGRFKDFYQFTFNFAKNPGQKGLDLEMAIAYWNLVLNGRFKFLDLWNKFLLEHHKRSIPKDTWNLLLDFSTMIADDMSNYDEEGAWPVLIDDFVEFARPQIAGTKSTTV
UniProt P39880: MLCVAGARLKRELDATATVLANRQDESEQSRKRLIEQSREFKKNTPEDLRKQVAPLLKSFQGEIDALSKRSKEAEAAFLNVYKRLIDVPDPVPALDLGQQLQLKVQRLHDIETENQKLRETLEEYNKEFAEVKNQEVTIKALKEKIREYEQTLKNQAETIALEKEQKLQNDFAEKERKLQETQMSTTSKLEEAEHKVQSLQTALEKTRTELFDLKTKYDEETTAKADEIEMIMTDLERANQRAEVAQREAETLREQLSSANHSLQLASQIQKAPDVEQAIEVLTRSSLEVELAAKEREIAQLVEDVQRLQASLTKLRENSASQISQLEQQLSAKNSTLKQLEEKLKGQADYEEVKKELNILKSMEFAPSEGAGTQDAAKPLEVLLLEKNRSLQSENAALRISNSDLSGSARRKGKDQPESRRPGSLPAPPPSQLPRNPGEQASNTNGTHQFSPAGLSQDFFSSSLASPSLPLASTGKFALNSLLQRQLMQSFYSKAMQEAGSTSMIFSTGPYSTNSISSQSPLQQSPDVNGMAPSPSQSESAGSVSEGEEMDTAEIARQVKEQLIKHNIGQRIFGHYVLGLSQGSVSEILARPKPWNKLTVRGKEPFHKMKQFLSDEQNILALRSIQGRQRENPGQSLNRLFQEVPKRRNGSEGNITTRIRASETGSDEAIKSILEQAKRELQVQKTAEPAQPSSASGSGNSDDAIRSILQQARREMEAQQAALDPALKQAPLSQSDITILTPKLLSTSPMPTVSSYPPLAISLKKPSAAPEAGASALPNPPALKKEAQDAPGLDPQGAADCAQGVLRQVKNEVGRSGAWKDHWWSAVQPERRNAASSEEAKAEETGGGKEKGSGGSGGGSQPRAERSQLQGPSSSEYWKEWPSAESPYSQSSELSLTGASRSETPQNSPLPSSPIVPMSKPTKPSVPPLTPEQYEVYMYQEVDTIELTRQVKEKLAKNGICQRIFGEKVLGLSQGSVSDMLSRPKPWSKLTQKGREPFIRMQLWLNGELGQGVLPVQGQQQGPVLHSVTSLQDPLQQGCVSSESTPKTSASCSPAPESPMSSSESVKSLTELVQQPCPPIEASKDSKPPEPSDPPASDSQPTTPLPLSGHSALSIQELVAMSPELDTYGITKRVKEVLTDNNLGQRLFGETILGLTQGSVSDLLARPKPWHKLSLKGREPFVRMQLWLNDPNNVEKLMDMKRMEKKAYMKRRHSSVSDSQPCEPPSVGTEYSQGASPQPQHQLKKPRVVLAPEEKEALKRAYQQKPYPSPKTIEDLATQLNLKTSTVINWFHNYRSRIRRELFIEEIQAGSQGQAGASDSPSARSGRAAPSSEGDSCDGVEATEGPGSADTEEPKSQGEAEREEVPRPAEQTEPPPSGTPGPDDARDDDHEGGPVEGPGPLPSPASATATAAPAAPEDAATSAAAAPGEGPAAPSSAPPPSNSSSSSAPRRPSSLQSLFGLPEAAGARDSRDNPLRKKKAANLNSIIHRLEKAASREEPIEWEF
UniProt P98082: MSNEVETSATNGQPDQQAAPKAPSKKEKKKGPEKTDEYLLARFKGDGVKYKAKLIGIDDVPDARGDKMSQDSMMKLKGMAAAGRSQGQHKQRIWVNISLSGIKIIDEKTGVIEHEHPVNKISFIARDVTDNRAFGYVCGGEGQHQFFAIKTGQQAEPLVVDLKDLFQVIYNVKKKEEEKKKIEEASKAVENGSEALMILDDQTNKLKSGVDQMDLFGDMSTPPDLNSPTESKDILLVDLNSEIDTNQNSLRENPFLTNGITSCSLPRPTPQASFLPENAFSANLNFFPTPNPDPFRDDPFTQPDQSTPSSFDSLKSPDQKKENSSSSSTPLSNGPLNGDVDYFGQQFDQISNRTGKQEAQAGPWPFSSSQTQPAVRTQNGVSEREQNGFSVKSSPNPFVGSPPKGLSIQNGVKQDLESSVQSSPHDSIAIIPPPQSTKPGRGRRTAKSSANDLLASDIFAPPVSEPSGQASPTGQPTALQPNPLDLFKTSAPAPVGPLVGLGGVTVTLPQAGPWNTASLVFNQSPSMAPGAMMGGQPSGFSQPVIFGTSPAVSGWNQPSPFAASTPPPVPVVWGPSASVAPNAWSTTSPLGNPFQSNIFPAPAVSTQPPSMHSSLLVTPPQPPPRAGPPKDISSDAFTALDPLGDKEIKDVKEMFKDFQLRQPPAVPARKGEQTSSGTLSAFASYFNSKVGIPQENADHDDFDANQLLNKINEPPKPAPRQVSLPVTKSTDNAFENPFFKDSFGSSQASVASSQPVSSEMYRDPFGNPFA
UniProt O60716: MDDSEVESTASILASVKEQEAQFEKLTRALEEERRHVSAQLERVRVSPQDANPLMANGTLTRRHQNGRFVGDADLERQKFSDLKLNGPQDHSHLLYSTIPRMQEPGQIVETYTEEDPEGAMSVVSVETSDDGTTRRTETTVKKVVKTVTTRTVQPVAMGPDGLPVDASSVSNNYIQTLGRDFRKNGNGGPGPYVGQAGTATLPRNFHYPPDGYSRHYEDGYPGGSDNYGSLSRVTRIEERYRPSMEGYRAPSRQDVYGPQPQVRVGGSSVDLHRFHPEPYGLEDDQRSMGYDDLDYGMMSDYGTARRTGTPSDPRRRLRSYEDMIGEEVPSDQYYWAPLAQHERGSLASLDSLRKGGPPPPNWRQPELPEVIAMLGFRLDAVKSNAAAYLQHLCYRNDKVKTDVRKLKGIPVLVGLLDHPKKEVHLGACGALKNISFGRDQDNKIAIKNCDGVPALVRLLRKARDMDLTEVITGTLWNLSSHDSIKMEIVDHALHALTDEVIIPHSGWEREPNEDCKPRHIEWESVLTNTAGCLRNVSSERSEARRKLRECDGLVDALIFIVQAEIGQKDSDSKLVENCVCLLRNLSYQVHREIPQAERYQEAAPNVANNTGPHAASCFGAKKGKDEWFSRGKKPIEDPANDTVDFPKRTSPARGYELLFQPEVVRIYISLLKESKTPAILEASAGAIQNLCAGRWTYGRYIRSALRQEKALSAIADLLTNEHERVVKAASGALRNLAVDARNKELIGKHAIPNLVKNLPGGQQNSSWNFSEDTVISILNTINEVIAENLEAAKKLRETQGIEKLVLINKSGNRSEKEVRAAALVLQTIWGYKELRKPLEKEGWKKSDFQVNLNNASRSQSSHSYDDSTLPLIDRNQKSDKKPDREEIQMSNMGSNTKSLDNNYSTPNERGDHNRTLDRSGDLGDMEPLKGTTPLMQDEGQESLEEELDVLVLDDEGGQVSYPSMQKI
UniProt Q14203, whole entry, looked up: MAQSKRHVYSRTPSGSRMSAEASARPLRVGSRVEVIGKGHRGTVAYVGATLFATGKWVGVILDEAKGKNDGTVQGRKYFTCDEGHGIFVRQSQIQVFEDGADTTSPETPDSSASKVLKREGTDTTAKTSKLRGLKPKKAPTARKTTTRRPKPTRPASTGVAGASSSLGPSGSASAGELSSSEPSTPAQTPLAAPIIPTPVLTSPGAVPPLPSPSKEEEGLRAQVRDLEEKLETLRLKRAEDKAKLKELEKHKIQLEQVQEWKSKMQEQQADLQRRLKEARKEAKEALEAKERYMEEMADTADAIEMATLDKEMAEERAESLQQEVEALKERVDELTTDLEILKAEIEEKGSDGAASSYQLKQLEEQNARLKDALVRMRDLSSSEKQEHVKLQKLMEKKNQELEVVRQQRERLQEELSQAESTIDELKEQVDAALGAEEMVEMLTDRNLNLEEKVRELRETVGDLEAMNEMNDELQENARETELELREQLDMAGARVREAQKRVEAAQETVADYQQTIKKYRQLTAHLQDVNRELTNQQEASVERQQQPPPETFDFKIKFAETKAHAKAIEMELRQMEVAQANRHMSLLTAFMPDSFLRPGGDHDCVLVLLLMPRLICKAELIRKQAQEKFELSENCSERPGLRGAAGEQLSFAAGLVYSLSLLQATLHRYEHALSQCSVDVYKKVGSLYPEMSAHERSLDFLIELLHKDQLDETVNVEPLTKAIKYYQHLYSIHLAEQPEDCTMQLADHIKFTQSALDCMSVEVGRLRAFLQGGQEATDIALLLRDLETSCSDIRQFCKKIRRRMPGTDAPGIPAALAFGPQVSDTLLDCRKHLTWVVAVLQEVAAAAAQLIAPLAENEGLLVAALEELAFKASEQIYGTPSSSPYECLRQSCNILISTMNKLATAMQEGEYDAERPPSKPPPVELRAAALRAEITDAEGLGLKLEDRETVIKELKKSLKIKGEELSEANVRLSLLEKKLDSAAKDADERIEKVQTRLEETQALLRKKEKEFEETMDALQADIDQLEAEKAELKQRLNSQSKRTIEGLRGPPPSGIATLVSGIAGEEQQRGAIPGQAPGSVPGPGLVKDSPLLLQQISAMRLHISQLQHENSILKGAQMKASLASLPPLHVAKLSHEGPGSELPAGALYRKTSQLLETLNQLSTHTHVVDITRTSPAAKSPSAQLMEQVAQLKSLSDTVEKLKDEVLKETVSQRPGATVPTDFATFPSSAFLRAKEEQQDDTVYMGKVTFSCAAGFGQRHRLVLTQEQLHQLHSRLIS
UniProt P53634: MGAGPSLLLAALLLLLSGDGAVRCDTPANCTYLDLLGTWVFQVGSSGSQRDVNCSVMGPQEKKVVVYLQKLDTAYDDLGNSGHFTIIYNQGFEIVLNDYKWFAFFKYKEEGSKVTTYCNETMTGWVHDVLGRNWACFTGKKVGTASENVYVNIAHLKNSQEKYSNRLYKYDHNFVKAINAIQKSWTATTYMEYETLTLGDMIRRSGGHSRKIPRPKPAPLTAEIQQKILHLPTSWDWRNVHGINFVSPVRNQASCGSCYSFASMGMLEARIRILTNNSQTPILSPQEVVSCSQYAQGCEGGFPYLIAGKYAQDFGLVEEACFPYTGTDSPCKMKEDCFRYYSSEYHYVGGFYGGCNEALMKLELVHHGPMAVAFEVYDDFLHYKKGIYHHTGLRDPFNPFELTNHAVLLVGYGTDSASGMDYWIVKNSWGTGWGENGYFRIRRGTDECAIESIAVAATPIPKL
UniProt Q99418: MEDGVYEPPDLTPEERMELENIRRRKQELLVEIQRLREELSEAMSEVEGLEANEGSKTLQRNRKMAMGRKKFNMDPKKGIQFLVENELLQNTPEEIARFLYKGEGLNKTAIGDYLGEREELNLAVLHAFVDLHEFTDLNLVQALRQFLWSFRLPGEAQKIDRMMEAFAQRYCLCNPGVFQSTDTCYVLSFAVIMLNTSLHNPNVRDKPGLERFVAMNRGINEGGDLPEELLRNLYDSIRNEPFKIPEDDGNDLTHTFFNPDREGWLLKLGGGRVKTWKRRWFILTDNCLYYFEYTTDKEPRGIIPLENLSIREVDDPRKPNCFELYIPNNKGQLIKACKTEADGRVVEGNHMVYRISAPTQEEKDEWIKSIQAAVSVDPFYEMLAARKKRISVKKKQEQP
UniProt O60888: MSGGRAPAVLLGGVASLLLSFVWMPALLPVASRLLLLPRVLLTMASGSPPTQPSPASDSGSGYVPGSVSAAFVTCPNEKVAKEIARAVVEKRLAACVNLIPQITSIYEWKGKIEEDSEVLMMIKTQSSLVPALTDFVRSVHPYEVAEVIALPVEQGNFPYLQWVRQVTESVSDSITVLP

What was measured:
Assay in all cases: log2 fold change, soluble protein after heating vs DMSO (PISA); higher = thermal stabilisation; K562 cells, 10 uM, 30 min; active = over 0.2 and 3.5 SD of the protein, either way, in both replicates (recomputed)
[1] = compound: C1COCCN1CCN2C3=CC=CC=C3N=C2NC(=O)C4=CC(=CC=C4)[N+](=O)[O-] [IRAK-1-4 Inhibitor I]
Procedure, shortened: (§1)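 K562 cells at 2×10^6 cells/mL were exposed to 10 μM compound for 30 min, then aliquots were heated for 3 min across 48°C-58°C, pooled, and extracted in PBS containing 0.5% NP-40 at 4°C. The supernatant after 21,000xg for 90 min was taken as soluble protein and measured by TMTpro 16plex LC-MS/MS with channel sums equalised. Thermal stability is reported relative to control samples, with values from duplicates. Fold changes are given on a log2 scale.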

[2] = compound: C=CC(=O)N1CCC[C@@H](n2nc(-c3ccc(Oc4ccccc4)cc3)c3c(N)ncnc32)C1 [ibrutinib]
Procedure, shortened: as §1

[3] = compound: CC(=O)c1cnc2ccc(-c3cc(Cl)c(O)c(Cl)c3)nc2c1N[C@H]1CC[C@H](CN(C)C)CC1
Procedure, shortened: as §1

[4] = compound: CC(C)(C)Cn1c(N)nc2ccc(-c3[nH]c(C(C)(C)C)nc3-c3ccc(F)cc3)nc21 [ralimetinib]
Procedure, shortened: as §1

[5] = compound: CC(C)(O)CC(=O)NCCn1ccc2ncnc(Nc3ccc(Oc4cccc(C(F)(F)F)c4)c(Cl)c3)c21
Procedure, shortened: as §1

[6] = compound: CC(C)C1=C2N=C(C=C(N2N=C1)NCC3=CC=CC=C3)NCCCCCCN
Procedure, shortened: as §1

[7] = compound: CC(C)C[C@@H](C=O)NC(=O)[C@H](CC(C)C)NC(=O)[C@H](CC(C)C)NC(=O)OCc1ccccc1
Procedure, shortened: as §1

[8] = compound: CC(C)N(C[C@H]1O[C@@H](n2cnc3c(N)ncnc32)[C@H](O)[C@@H]1O)[C@H]1C[C@@H](CCc2nc3cc(C(C)(C)C)ccc3[nH]2)C1 [pinometostat]
Procedure, shortened: as §1

[9] = compound: CC1=C(C2=C(C=C1)C(=O)C3=CC=CC=C3N2CCCN)C
Procedure, shortened: as §1

[10] = compound: CC1=C(C=C(C=C1)NC(=O)C2=CC(=CC=C2)C(C)(C)C#N)NC3=CC4=C(C=C3)N=CN(C4=O)C
Procedure, shortened: as §1

[11] = compound: CC1=C(C=C(C=C1)NC(=O)C2=CC(=CC=C2)N(C)C)NC(=O)C3=CC=C(C=C3)O
Procedure, shortened: as §1

[12] = compound: CC1=CC=C(C=C1)SC2=C3C=C(SC3=CN=C2)C(=O)N
Procedure, shortened: as §1

[13] = compound: CC1=NC(=CC=C1)C2=C(N=C(N2)C(C)(C)C)C3=CC4=NC=CN=C4C=C3
Procedure, shortened: as §1

[14] = compound: CCCCN(Cc1ccc(C(=O)NO)cc1)C(=O)Nc1ccccc1 [Nexturastat A]
Procedure, shortened: as §1

[15] = compound: CCCS(=O)(=O)Nc1ccc(F)c(C(=O)c2c[nH]c3ncc(-c4ccc(Cl)cc4)cc23)c1F [vemurafenib]
Procedure, shortened: as §1

[16] = compound: CCCS(=O)(=O)Nc1ccc(F)c(C(=O)c2c[nH]c3ncc(Cl)cc23)c1F
Procedure, shortened: as §1

[17] = compound: CCCc1cc(C)[nH]c(=O)c1CNC(=O)c1cc(-c2ccnc(N3CCN(C)CC3)c2)cc2c1cnn2C(C)C
Procedure, shortened: as §1

[18] = compound: CCN(CC)Cc1ccc2cc(COC(=O)Nc3ccc(C(=O)NO)cc3)ccc2c1 [givinostat]
Procedure, shortened: as §1

[19] = compound: CCN(CCCOc1ccc2c(Nc3cc(CC(=O)Nc4cccc(F)c4)[nH]n3)ncnc2c1)CCOP(=O)(O)O [barasertib]
Procedure, shortened: as §1

Target | log2 fold change [1] | log2 fold change [2] | log2 fold change [3] | log2 fold change [4] | log2 fold change [5] | log2 fold change [6] | log2 fold change [7] | log2 fold change [8] | log2 fold change [9] | log2 fold change [10] | log2 fold change [11] | log2 fold change [12] | log2 fold change [13] | log2 fold change [14] | log2 fold change [15] | log2 fold change [16] | log2 fold change [17] | log2 fold change [18] | log2 fold change [19]
DCUN1D1 (UniProt Q96GG9) | inactive: 0.031 | inactive: 0.016 | inactive: -0.06 | inactive: -0.047 | inactive: -0.002 | inactive: -0.061 | inactive: -0.022 | inactive: -0.035 | inactive: 0.018 | inactive: -0.027 | inactive: -0.077 | inactive: 0.022 | inactive: 0.078 | inactive: 0.018 | inactive: 0.008 | inactive: 0.05 | inactive: -0.028 | inactive: -0.018 | inactive: 0.013
CUX1 isoform 3 (UniProt P39880) | inactive: 0.019 | inactive: -0.033 | inactive: -0.032 | inactive: -0.065 | inactive: -0.047 | inactive: 0.008 | inactive: 0.116 | inactive: -0.018 | inactive: 0.153 | inactive: -0.039 | inactive: 0.016 | inactive: 0 | inactive: -0.001 | inactive: -0.013 | inactive: 0.043 | inactive: 0.025 | inactive: 0.065 | inactive: 0.002 | inactive: 0.013
DAB2 (UniProt P98082) | inactive: -0.009 | inactive: 0.004 | inactive: -0.093 | inactive: 0.082 | inactive: -0.119 | inactive: -0.02 | inactive: 0.138 | inactive: 0.049 | inactive: -0.075 | inactive: 0.016 | inactive: 0.015 | inactive: -0.03 | inactive: -0.046 | inactive: 0.058 | inactive: -0.033 | inactive: 0.064 | inactive: 0.036 | inactive: 0.109 | inactive: 0.072
CTNND1 (UniProt O60716) | inactive: -0.211 | inactive: 0.006 | inactive: -0.231 | inactive: 0.419 | inactive: 0.106 | inactive: 0.028 | inactive: 0.071 | inactive: 0.241 | inactive: 0.03 | inactive: -0.107 | inactive: 0.187 | inactive: -0.014 | inactive: 0.014 | inactive: 0.432 | inactive: 0.003 | inactive: -0.065 | inactive: 0.186 | inactive: 0.035 | inactive: -0.005
DCP2 (UniProt Q8IU60) | inactive: -0.372 | – | inactive: -0.265 | inactive: 0.105 | inactive: 0.147 | – | inactive: 0.185 | inactive: 0.038 | inactive: -0.111 | inactive: -0.134 | inactive: -0.006 | inactive: 0.016 | inactive: -0.089 | inactive: 0.174 | inactive: 0.064 | inactive: 0.055 | – | – | –
DCTN1 isoform 4 (UniProt Q14203) | inactive: -0.101 | inactive: -0.02 | inactive: -0.001 | inactive: 0.114 | inactive: -0.086 | active: -0.303 | inactive: 0.07 | inactive: 0.138 | inactive: 0.019 | inactive: 0.022 | inactive: -0.017 | inactive: 0.015 | inactive: -0.039 | inactive: 0.116 | inactive: -0.015 | inactive: 0.019 | inactive: 0.102 | inactive: 0.104 | inactive: 0.033
CTSC (UniProt P53634) | inactive: 0.008 | inactive: 0.011 | inactive: -0.003 | inactive: -0.034 | inactive: 0.016 | inactive: -0.061 | inactive: 0.015 | inactive: -0.031 | inactive: -0.038 | inactive: -0.113 | inactive: 0.001 | inactive: 0.059 | inactive: -0.003 | inactive: -0.009 | inactive: 0.035 | inactive: 0.01 | inactive: 0.03 | inactive: 0.017 | inactive: 0.023
CYTH2 (UniProt Q99418) | inactive: -0.085 | inactive: -0.047 | inactive: -0.093 | – | – | inactive: 0.03 | – | inactive: 0.138 | inactive: -0.139 | – | – | inactive: -0.038 | inactive: -0.007 | – | – | inactive: -0.016 | inactive: -0.036 | inactive: 0.007 | inactive: 0.067
CUTA isoform 2 (UniProt O60888) | inactive: 0.074 | inactive: -0.018 | inactive: 0.085 | inactive: -0.046 | inactive: -0.104 | inactive: 0.038 | inactive: -0.09 | inactive: -0.009 | inactive: 0.15 | inactive: -0.121 | inactive: -0.011 | inactive: 0.013 | inactive: 0.044 | inactive: 0.169 | inactive: 0 | inactive: 0.044 | inactive: 0.16 | inactive: -0.044 | inactive: 0.015
